From patent US20110046090A1 (BrainCells Inc., priority 2005, published 2011)
Values joined by “and” are separate entries in the source; they are usually repeats but may differ in a detail not shown here. Equal entries are not always repeated. At least one read-out could not be matched to a standard name with certainty.

System: human neural stem cells (hNSCs)
Experiment: neuronal differentiation of cultured human neural stem cells (TUJ-1 staining), agents alone and in combination;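 also: cells kept in mitogen-free test media, with growth-factor-free basal medium as the negative control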
Settings: read-out: EC50 for neuronal differentiation, agent alone; compound run individually; % of neuronal positive control, basal media subtracted

| SMILES | EC50 |
| --- | --- |
| NCC1(CC(=O)O)CCCCC1 [gabapentin, Gabapentin] | 1.29 µM and 6.73 µM |
| CC(C)C[C@H](CN)CC(=O)O [pregabalin, (S)-(+)-3-isobutylgaba] | 1.03 µM |
